Paper PMC8390522
Results are given in words; binding and its absence hold for the method and conditions named. Some binding calls cover weakened binding; strength is not graded here.

Amino acid sequences for entries named in this document (tags omitted).
UniProt P26527: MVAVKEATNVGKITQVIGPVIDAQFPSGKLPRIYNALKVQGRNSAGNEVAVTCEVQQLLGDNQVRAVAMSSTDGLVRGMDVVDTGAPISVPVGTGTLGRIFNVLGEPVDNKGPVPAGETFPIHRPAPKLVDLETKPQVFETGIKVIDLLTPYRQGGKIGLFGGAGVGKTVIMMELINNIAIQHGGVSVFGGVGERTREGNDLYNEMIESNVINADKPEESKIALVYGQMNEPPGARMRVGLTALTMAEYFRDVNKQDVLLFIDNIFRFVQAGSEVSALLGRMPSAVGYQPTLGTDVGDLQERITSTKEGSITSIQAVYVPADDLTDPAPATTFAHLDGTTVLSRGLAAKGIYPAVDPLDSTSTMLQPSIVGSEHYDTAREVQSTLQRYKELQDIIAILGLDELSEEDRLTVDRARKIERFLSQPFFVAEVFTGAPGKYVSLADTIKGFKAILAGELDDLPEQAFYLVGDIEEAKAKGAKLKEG

B1: γ subunit of FoF1 ATP synthase of Synechocystis sp. PCC 6803, Δ205–220/E204G/K221G (protein, UniProt P17253)
chain: MPNLKAIRDRIQSVKNTKKITEAMRLVAAAKVRRAQEQVLSTRPFADALAQVLYNLQNRLSFAETELPLFEQREPKAVALLVVTGDRGLCGGYNVNAIKRAEQRAKELKNQGIAVKLVLVGSKAKQYFGRRDYDVAASYANLEQIPNASEAAQIADSLVALFVSETVDRVELIYTRFVSLISSQPVVQTLFPLSPQGLEAPDDGGVEAPVESFPQDMIFEQDPVQILEALLPLYNTNQLLRALQESAASELAARMTAMSNASDNAGQLIGTLTLSYNKARQAAITQELLEVVAGANSL
B2: γ subunit of FoF1 ATP synthase of Synechocystis sp. PCC 6803 (protein, UniProt P17253 1-314)
chain: MPNLKAIRDRIQSVKNTKKITEAMRLVAAAKVRRAQEQVLSTRPFADALAQVLYNLQNRLSFAETELPLFEQREPKAVALLVVTGDRGLCGGYNVNAIKRAEQRAKELKNQGIAVKLVLVGSKAKQYFGRRDYDVAASYANLEQIPNASEAAQIADSLVALFVSETVDRVELIYTRFVSLISSQPVVQTLFPLSPQGLEAPDDEIFRLITRGGKFQVEREKVEAPVESFPQDMIFEQDPVQILEALLPLYNTNQLLRALQESAASELAARMTAMSNASDNAGQLIGTLTLSYNKARQAAITQELLEVVAGANSL
B3: δ subunit of FoF1 ATP synthase of Synechocystis sp. PCC 6803 (protein, UniProt P27180 1-185)
chain: MKGSLYSSKIAEPYAQALIGLAQQQNLTEVFGDNLRSLLTLLQDSPDLSAVLSSPVVKDEDKKSVLRSVLGDGGNGYLLNFLMLLVDKRRIVFLEAICEQYLALLRQFTNTVLAEVTSALKLTDAQKDQVKERVKQLTGAQAVELETKVDGDILGGIVIKVGSQVFDSSLRGQLRRVGLSLGTAL
B4: b subunit of FoF1 ATP synthase of Synechocystis sp. PCC 6803 (protein, UniProt P27181 1-179)
chain: MLNTLFILAAEAHEAGEGGFGINLDFLEANLFNLAILLGIIIYYAPKTLGKILGDRRQKIADAIEEAETRQRKSAQILAEEEKKLAQAKAEAARIVQEAGQRAEVAKQEIATQTEADLRRMQEAAAQDLGAEQERVIAELKRRIAEQAVAKAEADLRDRLNEDTQDRLIERSIAQLGGR
B5: b' subunit of FoF1 ATP synthase of Synechocystis sp. PCC 6803 (protein, UniProt P27183 1-143)
chain: MFDFDATLPLMALQFVVLAFLLNAIFYKPMNKVLDERADYIRTNEEDARERLAKAKAITQEYEQQITDARRQSQAVIADAQAEARRLAAEKIAEAQRESQRQKETAAQEIEAQRQSALSSLEQEVAALSNQILHKLLGPELIK
B6: ε subunit of FoF1 ATP synthase of Synechocystis sp. PCC 6803 (protein, UniProt P26533 1-136)
chain: MTLTVRVITPDKVVWDEEVQELILPSTTGQLGILSNHAPLLTALEIGVMRVRPGKDWQNIAVMGGFAEVENNEVKVLVNGAELGTTIDAESARQAYTAAQGALEEANRGEDKPNQLKASNNYKKARARLQAAGGAV
B7: γ subunit of FoF1 ATP synthase of Synechocystis sp. PCC 6803, Δ212–213/R211G/K214G (protein, UniProt P17253 1-314)
chain: MPNLKAIRDRIQSVKNTKKITEAMRLVAAAKVRRAQEQVLSTRPFADALAQVLYNLQNRLSFAETELPLFEQREPKAVALLVVTGDRGLCGGYNVNAIKRAEQRAKELKNQGIAVKLVLVGSKAKQYFGRRDYDVAASYANLEQIPNASEAAQIADSLVALFVSETVDRVELIYTRFVSLISSQPVVQTLFPLSPQGLEAPDDEIFRLITGGFQVEREKVEAPVESFPQDMIFEQDPVQILEALLPLYNTNQLLRALQESAASELAARMTAMSNASDNAGQLIGTLTLSYNKARQAAITQELLEVVAGANSL

biological target: β subunit of FoF1 ATP synthase of Synechocystis sp. PCC 6803 with an N-terminal His10-tag (Synechocystis sp. PCC 6803) (UniProt P26527); test: co-purification by Ni-affinity chromatography; thylakoid membranes solubilised with 1% LMNG; FoF1 held by the His10-tag of the β subunit, 10 mM potassium phosphate pH 8.0, 100 mM K2SO4, 0.1 mM MgCl2, 0.1 mM ADP, 0.005% LMNG, 60 to 200 mM imidazole; bands of the SDS-PAGE gel identified by peptide mass fingerprinting, N-terminal sequencing or immunoblot

B1 was tested. Which binding did it give?
Its binding is “binds”.

How did the binding turn out when B2 was run?
Its binding is “binds”.

With B3 as the binder, how does the binding read?
The binding was “binds”.

For B4, which binding is on record?
The binding was “binds”.

With B5 as the binder, how does the binding read?
Its binding is “binds”.

For B6, which binding is on record?
Its binding is “binds”.

For B7, which binding is on record?
The binding was “binds”.
